Assay results reported in PMC8657792, “Interaction Profiles of Central Nervous System Active Drugs at Human Organic Cation Transporters 1–3 and Human Plasma Membrane Monoamine Transporter” (International Journal of Molecular Sciences, 2021).
Like-named read-outs stand apart in the source and are kept apart here.

Key:
hOCT1 = molecular target: T1, hOCT1 (Homo sapiens, UniProt O15245); assay: [3H]MPP+ uptake inhibition assay, HEK293 cells stably expressing hOCT1; type: cell-based
T1 construct: expressed in transfected cells
T1 sequence (O15245 1-554): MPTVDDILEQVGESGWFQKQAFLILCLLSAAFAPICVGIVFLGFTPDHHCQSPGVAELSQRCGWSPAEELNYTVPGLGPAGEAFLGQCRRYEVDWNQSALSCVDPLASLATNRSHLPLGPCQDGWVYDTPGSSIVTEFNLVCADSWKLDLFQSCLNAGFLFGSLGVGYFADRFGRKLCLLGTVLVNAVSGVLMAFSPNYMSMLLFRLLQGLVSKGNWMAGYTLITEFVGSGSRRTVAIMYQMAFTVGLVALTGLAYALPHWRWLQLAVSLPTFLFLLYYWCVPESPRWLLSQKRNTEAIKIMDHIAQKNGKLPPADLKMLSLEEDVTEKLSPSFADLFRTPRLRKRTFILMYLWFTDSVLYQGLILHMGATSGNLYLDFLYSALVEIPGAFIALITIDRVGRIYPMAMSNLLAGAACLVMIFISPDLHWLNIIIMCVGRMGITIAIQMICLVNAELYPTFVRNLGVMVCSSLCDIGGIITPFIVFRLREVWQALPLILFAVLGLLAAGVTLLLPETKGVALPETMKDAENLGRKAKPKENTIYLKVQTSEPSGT

hOCT2 = molecular target: T2, hOCT2 (Homo sapiens, UniProt O15244); assay: [3H]MPP+ uptake inhibition assay, HEK293 cells stably expressing hOCT2; type: cell-based
T2 construct: expressed in transfected cells
T2 sequence (O15244 1-555): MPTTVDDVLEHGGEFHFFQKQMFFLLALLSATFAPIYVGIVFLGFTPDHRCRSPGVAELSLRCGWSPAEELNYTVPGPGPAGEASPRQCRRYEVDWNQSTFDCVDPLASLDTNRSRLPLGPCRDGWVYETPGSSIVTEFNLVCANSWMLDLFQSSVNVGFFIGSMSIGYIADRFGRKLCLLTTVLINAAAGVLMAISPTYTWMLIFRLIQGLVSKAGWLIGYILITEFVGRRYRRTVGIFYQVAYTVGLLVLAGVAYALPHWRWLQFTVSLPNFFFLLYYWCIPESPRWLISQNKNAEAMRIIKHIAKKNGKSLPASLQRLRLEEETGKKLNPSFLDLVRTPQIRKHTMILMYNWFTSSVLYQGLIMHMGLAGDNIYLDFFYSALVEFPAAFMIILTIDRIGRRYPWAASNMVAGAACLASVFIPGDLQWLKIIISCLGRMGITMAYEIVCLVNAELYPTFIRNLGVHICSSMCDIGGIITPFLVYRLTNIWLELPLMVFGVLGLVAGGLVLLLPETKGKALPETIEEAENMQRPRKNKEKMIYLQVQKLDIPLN

hOCT3 [1] = molecular target: T3, hOCT3 (Homo sapiens, UniProt O75751); assay: [3H]MPP+ uptake inhibition assay, HEK293 cells stably expressing hOCT3; type: cell-based
T3 construct: expressed in transfected cells
T3 sequence (O75751 1-556): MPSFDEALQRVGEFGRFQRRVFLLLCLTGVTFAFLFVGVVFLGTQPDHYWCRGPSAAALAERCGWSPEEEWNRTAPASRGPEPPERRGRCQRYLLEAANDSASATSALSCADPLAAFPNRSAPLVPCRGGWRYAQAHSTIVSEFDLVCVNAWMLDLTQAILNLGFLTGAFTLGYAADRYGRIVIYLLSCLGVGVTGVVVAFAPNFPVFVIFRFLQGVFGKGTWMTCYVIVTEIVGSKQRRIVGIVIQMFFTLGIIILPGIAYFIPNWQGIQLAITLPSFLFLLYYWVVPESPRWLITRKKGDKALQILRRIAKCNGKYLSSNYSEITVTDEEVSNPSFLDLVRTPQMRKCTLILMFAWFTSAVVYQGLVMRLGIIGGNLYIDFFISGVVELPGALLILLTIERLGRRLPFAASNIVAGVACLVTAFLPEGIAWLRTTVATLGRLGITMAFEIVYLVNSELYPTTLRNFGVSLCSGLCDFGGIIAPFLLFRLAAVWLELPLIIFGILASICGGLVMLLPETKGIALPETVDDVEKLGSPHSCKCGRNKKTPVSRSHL

hPMAT = molecular target: T4, hPMAT (Homo sapiens, UniProt Q7RTT9); assay: [3H]MPP+ uptake inhibition assay, HEK293 cells stably expressing hPMAT; type: cell-based
T4 construct: expressed in transfected cells
T4 sequence (Q7RTT9 1-530): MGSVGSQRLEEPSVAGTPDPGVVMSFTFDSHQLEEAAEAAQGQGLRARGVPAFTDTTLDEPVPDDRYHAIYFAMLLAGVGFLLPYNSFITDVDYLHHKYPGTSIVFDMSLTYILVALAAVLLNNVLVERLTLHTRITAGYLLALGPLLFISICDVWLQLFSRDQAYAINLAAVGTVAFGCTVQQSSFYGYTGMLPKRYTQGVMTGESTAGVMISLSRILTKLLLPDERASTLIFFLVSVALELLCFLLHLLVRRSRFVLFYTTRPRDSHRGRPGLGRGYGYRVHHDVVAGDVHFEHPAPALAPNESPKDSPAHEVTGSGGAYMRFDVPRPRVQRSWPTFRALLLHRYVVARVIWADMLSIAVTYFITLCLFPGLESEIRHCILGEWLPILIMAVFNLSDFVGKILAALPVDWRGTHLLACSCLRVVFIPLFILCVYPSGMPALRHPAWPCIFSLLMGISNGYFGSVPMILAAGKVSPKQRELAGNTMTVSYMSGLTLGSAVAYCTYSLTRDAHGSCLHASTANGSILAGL

hOCT3 [2] = molecular target: T3, hOCT3; conditions: read-out: IC50 at hOCT3 reported by a previous study; fluorescent ASP+ as tracer; Massmann and colleagues; cited from earlier work

CN1C(=O)CN=C(c2ccccc2)c2cc(Cl)ccc21 [Diazepam, diazepam]
Effect on substrate uptake by hOCT1 (in words) (hOCT1): fully inhibited substrate uptake
Effect on substrate uptake by hOCT2 (in words) (hOCT2): fully inhibited substrate uptake
IC50 (hOCT3 [1]): 44.5 µM
Effect on substrate uptake by hOCT3 (in words) (hOCT3 [1]; [3H]MPP+ uptake, HEK293 hOCT3): fully inhibited substrate uptake
Effect on substrate uptake by hPMAT (in words) (hPMAT): fully inhibited substrate uptake
IC50 (hOCT3 [2]): 2 µM
